PubChem BioAssay AID1508588 – Peter MacCallum Cancer Centre | 2020
This is one part, drawn at random, of about 18,000 reagents. Of all reagents, 790 (4.4%) are marked active. 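Calls rest on a combination of fold-change classes in drug and vehicle arms, not all shown here.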 Entries without a mark were called inactive.

Assay: 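Genome-wide search for knock-downs that heighten vemurafenib action in melanoma cells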 (primary screen)
System: human WM266.4 melanoma cells (BRAF V600 mutant)
Reagents: siRNA pool against human genes, 40 nM
Time to read-out: 96 h from transfection to read-out
Conditions: vemurafenib 300 nM (about IC25), added 48 h after transfection, for 48 h; comparison arm got DMSO vehicle only
Read-out: 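Cell gain (DAPI nuclei at end minus before drug, mean of two replicates) and medium lactate by absorbance per cell, both as ratio to non-targeting siRNA, also grouped into fold-change classes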
Reading the numbers: cell gain with vemurafenib: higher = more cell gain than with non-targeting siRNA; lactate per cell with vemurafenib: higher = more lactate made per cell
Call rule: 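a knock-down counts as enhancing when its fold-change classes with vehicle and with vemurafenib, taken together, show a stronger drug effect on cell gain or lactate per cell; exact class pairs not stated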
Meaning of the calls: active = enhances vemurafenib effect; inactive = no enhancement seen

Against NDUFAF4, the entry reads cell gain with vemurafenib 1.21; lactate per cell with vemurafenib 0.82.
With knock-down of DEGS1, the screen gave cell gain with vemurafenib 0.23; lactate per cell with vemurafenib 2.73.
Depletion of KATNA1 came out at: cell gain with vemurafenib 0.39; lactate per cell with vemurafenib 1.1.
INTS4 gave cell gain with vemurafenib 0.34; lactate per cell with vemurafenib 0.88.
Silencing of SHC4 came out at: cell gain with vemurafenib 1.1; lactate per cell with vemurafenib 0.7.
Silencing of METTL5 resulted in: cell gain with vemurafenib 0.78; lactate per cell with vemurafenib 0.91.
For TXK, the values are cell gain with vemurafenib 0.53; lactate per cell with vemurafenib 0.7.
Knock-down of H3-5 gave: cell gain with vemurafenib 1.05; lactate per cell with vemurafenib 0.7.
With knock-down of MTX3, the screen gave cell gain with vemurafenib 0.84; lactate per cell with vemurafenib 1.12.
Knock-down of LPIN3 resulted in: cell gain with vemurafenib 0.72; lactate per cell with vemurafenib 0.48.
LONP1 scored cell gain with vemurafenib 0.48; lactate per cell with vemurafenib 0.37.
Against MAPK3 the deposit lists cell gain with vemurafenib 0.33; lactate per cell with vemurafenib 1.38.
Silencing of DNTTIP2 gave: cell gain with vemurafenib 0.12; lactate per cell with vemurafenib 0.55.
Depletion of SEC13 came out at: cell gain with vemurafenib 0.15; lactate per cell with vemurafenib 1.04.
Against APOC3 the deposit lists cell gain with vemurafenib 0.78; lactate per cell with vemurafenib 0.53.
Against GPR15, the entry reads cell gain with vemurafenib 0.63; lactate per cell with vemurafenib 1.14.

Not a retest: an excerpt of the list.
NDUFAF4 | cell gain with vemurafenib = 1.21; lactate per cell with vemurafenib = 0.82
DEGS1 | cell gain with vemurafenib = 0.23; lactate per cell with vemurafenib = 2.73

The results go on:
Depletion of USP11 resulted in: cell gain with vemurafenib 0.46; lactate per cell with vemurafenib 0.97.
For TREX1, the values are cell gain with vemurafenib 0.13; lactate per cell with vemurafenib 0.9.
After knock-down of ANKH the results were cell gain with vemurafenib 0.45; lactate per cell with vemurafenib 0.32.
Silencing of PRSS57 resulted in: cell gain with vemurafenib 0.09; lactate per cell with vemurafenib 2.12.
For BTN3A1, the values are cell gain with vemurafenib 0.52; lactate per cell with vemurafenib 1.19.
With knock-down of LY6G6F, the record shows cell gain with vemurafenib 0.45; lactate per cell with vemurafenib 0.53.
After knock-down of MARCHF2, the record shows cell gain with vemurafenib 1.12; lactate per cell with vemurafenib 0.81.
Knock-down of MIR1915HG came out at: cell gain with vemurafenib 0.48; lactate per cell with vemurafenib 0.78.
After knock-down of SLC38A7 the results were cell gain with vemurafenib 0.74; lactate per cell with vemurafenib 0.86.
Against MTFP1, the values are cell gain with vemurafenib 0.92; lactate per cell with vemurafenib 1.29.
Depletion of DCST1 resulted in: cell gain with vemurafenib 0.72; lactate per cell with vemurafenib 0.56.
After knock-down of PRPS1 the results were cell gain with vemurafenib 1.18; lactate per cell with vemurafenib 0.51.
ASMT gave cell gain with vemurafenib 0.92; lactate per cell with vemurafenib 0.16.
ZNF677 scored cell gain with vemurafenib 0.8 (active); lactate per cell with vemurafenib 0.46.
Knock-down of ZNF268 resulted in: cell gain with vemurafenib 0.15; lactate per cell with vemurafenib 0.8.
After knock-down of TNFAIP6, the record shows cell gain with vemurafenib 0.46; lactate per cell with vemurafenib 0.92.
SPRR1A gave cell gain with vemurafenib 0.41; lactate per cell with vemurafenib 1.33.
After knock-down of CMTM2, the screen gave cell gain with vemurafenib 0.82; lactate per cell with vemurafenib 0.5.
EFNB2 gave cell gain with vemurafenib 0.21; lactate per cell with vemurafenib 1.14.
Depletion of GLTPD2 gave: cell gain with vemurafenib 0.58; lactate per cell with vemurafenib 1.06.
After knock-down of TSSK4 the results were cell gain with vemurafenib 0.67; lactate per cell with vemurafenib 0.64.
NEURL2 showed cell gain with vemurafenib 0.07; lactate per cell with vemurafenib 0.75.
FCAMR gave cell gain with vemurafenib 0.84; lactate per cell with vemurafenib 1.66.
Against PGD, the values are cell gain with vemurafenib 0.39; lactate per cell with vemurafenib -0.06.
